Results are given in words; binding and its absence hold for the method and conditions named. In cells and extracts the contact can be indirect. Some binding calls cover weakened binding; strength is not graded here.
Target: YFP-tagged JNK3 (UniProt P53779)
Test: FRET or BRET; arrestin-kinase BRET in living HEK293 cells cotransfected with WT AT1R, β-arr2-Rluc and a YFP-tagged kinase; 1 μM AngII for 10 min

The chains behind the UniProt entries cited, without tags or fusion partners.
UniProt P53779: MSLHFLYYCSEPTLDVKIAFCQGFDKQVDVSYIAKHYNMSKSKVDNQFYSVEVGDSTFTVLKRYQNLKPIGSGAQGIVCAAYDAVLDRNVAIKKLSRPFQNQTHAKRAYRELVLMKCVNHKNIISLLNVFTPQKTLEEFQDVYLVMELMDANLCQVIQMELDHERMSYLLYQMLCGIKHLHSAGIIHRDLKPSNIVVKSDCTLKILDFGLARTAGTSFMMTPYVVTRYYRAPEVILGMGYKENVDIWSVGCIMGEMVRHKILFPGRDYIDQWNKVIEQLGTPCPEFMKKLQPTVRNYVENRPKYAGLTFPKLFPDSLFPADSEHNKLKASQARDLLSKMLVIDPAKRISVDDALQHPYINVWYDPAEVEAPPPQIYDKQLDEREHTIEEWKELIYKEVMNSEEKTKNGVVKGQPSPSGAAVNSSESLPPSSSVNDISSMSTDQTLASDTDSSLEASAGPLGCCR
UniProt P32121: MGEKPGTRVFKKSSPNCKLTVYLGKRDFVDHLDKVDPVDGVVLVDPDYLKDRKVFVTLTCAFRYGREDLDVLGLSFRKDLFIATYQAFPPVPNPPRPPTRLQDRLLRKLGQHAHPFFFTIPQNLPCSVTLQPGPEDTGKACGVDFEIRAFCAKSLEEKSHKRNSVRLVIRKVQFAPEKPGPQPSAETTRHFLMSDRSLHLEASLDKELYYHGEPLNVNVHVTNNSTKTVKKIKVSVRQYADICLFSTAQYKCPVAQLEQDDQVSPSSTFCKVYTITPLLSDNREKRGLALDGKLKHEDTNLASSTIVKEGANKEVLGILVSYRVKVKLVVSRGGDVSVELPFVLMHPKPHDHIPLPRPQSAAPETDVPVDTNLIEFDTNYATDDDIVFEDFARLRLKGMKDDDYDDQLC

- binding: binds
Substance: β-arr2-Rluc (from UniProt P32121 1-409)
